PubChem BioAssay AID652243 – Drosophila RNAi Screening Center, 2013

Purpose: 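Fly regulators of androgen-dependent reporter output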 (primary screen)
System: Drosophila S2R+ cells
Knock-down reagent: long dsRNA against Drosophila genes
Duration: 72 h (48 h, then 24 h hormone)
Treatment: synthetic androgen R1881 at 10 nM for 24 h
Measurement: 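Per-well raw luminescence of the androgen-driven firefly reporter and of the Renilla control, two replicates each, without normalisation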
Direction: firefly reporter light: higher = more light from androgen-responsive reporter; Renilla control light: higher = more constitutive control signal (cell number, transfection)
Active means: 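Across duplicate plates, a knock-down whose log firefly/Renilla ratio shifted a set fold down or up from the GFP/LacZ control mean was a hit; the downward cut appears as both 1.5 and 3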
Meaning of the calls: active = hit: reporter lowered or raised; inactive = no hit
The screen tested about 24,000 reagents; this is a random part of those with a known target gene and a result. Over the whole deposit, 246 (1%) are marked active. 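Plates not normalised; calls are printed but the firefly/Renilla ratio behind them is not deposited; fold cut for lowering reported inconsistently.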 Raw values are not corrected between plates. Not given: the amount of reagent.

firefly reporter light, replicate 1 | firefly reporter light, replicate 2 | Renilla control light, replicate 1 | Renilla control light, replicate 2 | outcome | gene | dsRNA
3.66e5 | 5.74e5 | 3.61e6 | 3.75e6 | inactive | CG2004 | DRSC18200
7.45e5 | 7.00e5 | 1.88e6 | 1.85e6 | inactive | Doc2 | DRSC22716
4.16e5 | 3.87e5 | 5.43e5 | 5.87e5 | inactive | Doc2 | DRSC25293
70055 | 35728 | 4.20e5 | 4.18e5 | inactive | Afg3l2 | DRSC10657
5.18e5 | 5.05e5 | 1.42e6 | 1.56e6 | inactive | Afg3l2 | DRSC29981
1.41e5 | 2.19e5 | 2.28e6 | 2.56e6 | inactive | Rad60 | DRSC15580
1.35e5 | 1.14e5 | 7.79e5 | 8.17e5 | inactive | Traf4 | DRSC00445
7.30e5 | 1.05e6 | 1.84e6 | 2.09e6 | inactive | Traf4 | DRSC00794
52831 | 72022 | 6.18e5 | 6.68e5 | inactive | Ublcp1 | DRSC14149
5.11e5 | 4.89e5 | 1.59e6 | 1.55e6 | inactive | Ublcp1 | DRSC28057
2.38e5 | 2.95e5 | 3.18e6 | 3.33e6 | inactive | CG14280 | DRSC14761
59341 | 76239 | 6.81e5 | 6.34e5 | inactive | Indy | DRSC10393
69651 | 47103 | 7.88e5 | 8.18e5 | inactive | CG2663 | DRSC12314
6.13e5 | 6.03e5 | 1.33e6 | 1.40e6 | inactive | CG2663 | DRSC28701
78047 | 74296 | 9.68e5 | 7.28e5 | inactive | Fem-1 | DRSC07322
6.54e5 | 4.48e5 | 7.44e5 | 3.54e5 | inactive | Fem-1 | DRSC27014
2.13e5 | 2.18e5 | 1.24e6 | 1.06e6 | inactive | FANCI | DRSC06416
2.17e5 | 2.37e5 | 2.07e6 | 1.96e6 | inactive | inaD | DRSC04694
3.79e5 | 3.72e5 | 4.10e5 | 3.78e5 | inactive | inaD | DRSC27116
79307 | 66172 | 3.22e5 | 5.17e5 | inactive | Gyc89Db | DRSC15009
2.03e5 | 1.57e5 | 2.75e5 | 3.03e5 | inactive | CG31205 | DRSC13438
3.16e5 | 2.89e5 | 3.24e5 | 3.33e5 | inactive | CG31205 | DRSC26824
7.97e5 | 5.36e5 | 3.34e6 | 1.76e6 | inactive | CG3436 | DRSC00605
3.06e5 | 2.07e5 | 2.03e6 | 1.74e6 | inactive | CG7328 | DRSC10812
– | – | – | – | inactive | CG7328 | DRSC39265
1.18e5 | 1.49e5 | 2.23e6 | 2.60e6 | inactive | Fdx2 | DRSC08306
2.99e5 | 2.17e5 | 1.99e6 | 2.38e6 | inactive | CG15546 | DRSC15084
4.04e5 | 6.47e5 | 1.07e6 | 2.17e6 | inactive | CG15546 | DRSC22831
4.34e5 | 3.95e5 | 1.24e6 | 1.34e6 | inactive | CG15546 | DRSC28899
1.47e5 | 92939 | 1.24e6 | 9.56e5 | inactive | ArfGAP1 | DRSC11173
4.21e5 | 3.66e5 | 3.27e6 | 2.30e6 | inactive | CG13059 | DRSC09942
1.69e5 | 1.91e5 | 1.62e6 | 1.70e6 | inactive | hale | DRSC10882
4.93e5 | 4.92e5 | 1.61e6 | 1.59e6 | inactive | hale | DRSC28772
1.66e5 | 1.97e5 | 1.43e6 | 2.09e6 | inactive | CG3349 | DRSC10359
3.59e5 | 3.78e5 | 3.15e6 | 3.48e6 | inactive | bbc | DRSC06958
5.51e5 | 5.69e5 | 2.03e6 | 1.62e6 | inactive | bbc | DRSC22309
6.16e5 | 5.90e5 | 4.65e6 | 1.81e6 | inactive | CG16952 | DRSC19759
60193 | 36388 | 1.21e6 | 1.11e6 | inactive | dpr16 | DRSC12217
5.13e5 | 5.05e5 | 2.64e6 | 3.23e6 | inactive | dpr16 | DRSC12249
5.38e5 | 5.39e5 | 1.98e6 | 1.98e6 | inactive | mRpS7 | DRSC02814
